Experimental data published in US20060188921A1, “Methods for diagnosing and treating systemic lupus erythematosus disease and compositions thereof” (Wyeth, priority 2001, published 2006).
For at least one compound, name, drawing or mass did not settle the structure.

Assays:
[1] = tested on: anti-DNA antibody production; experiment: Anti-DNA antibody production in treated NZB/NZW F1 mice; assay type: in vivo; conditions: rapamycin 5 mg/kg subcutaneously, 3 doses a week for 8 weeks from 25 weeks old
[2] = tested on: whole kidney samples, approximately 11,000 murine genes; experiment: Kidney gene expression on oligonucleotide arrays in murine model of autoimmune kidney disease (untreated, rapamycin-treated, anti-B7-treated); assay type: in vivo, NZB/NZW F1 mice; conditions: rapamycin 5 mg/kg subcutaneously, 3 doses a week for 8 weeks from 25 weeks old; kidneys at 36 weeks, compared to untreated at 12 and 36 weeks
Description: NZB/NZW F1 (B/W) mice develop an autoimmune kidney disease that is analogous to human systemic erythematosus. Mice, aged at intervals from 12 weeks (asymptomatic) to 42 weeks (diseased) were chosen to mimic the clinical presentation of patients with established SLE. By seven months of age, mice begin to develop nephritis characterized by proteinuria, anti-DNA antibody production and histopathologic changes in the kidney. […]
Labeled RNA was prepared from clones containing a T7 RNA polymerase promoter site by incorporating labeled ribonucleotides in an in vitro transcription (IVT) reaction. […] RNA was concentrated and then quantitated by spectrophotometry. […]
The labeled and fragmented RNA probes were diluted in 1×MES buffer, BIO948, Bio C, B cre, 100 μg/ml herring sperm DNA, and 50 μg/ml acetylated BSA. […] When biotin-labeled RNA was used, the hybridized RNA was stained with a streptavidin-phycoerythrin conjugate (Molecule Probes, Eugene, Oreg.) prior to reading. […] The arrays were again washed and stained with streptavidin SSPE-T prior to being reading. The arrays were read using a scanning confocal microscope made for Affymetrix by Molecular Dynamics (commercially available through Affymetrix, Santa Clara, Calif.). […]

**Q.** Which results are given for CO[C@H]1C[C@@H]2CC[C@@H](C)[C@@](O)(O2)C(=O)C(=O)N2CCCC[C@H]2C(=O)O[C@H]([C@H](C)C[C@@H]2CC[C@@H](O)[C@H](OC)C2)CC(=O)[C@H](C)/C=C(\C)[C@@H](O)[C@@H](OC)C(=O)[C@H](C)C[C@H](C)/C=C/C=C/C=C/1C [rapamycin]?
**A.** anti-DNA antibody production [1]: decreasing anti-DNA antibody production; expression levels of the indicated genes (FIG. 1, Table 5) [2]: reduced expression levels of the indicated genes from diseased levels to nondiseased levels
